For at least one compound, name, drawing or mass did not settle the structure.
Biological target: E. coli TrxR (Escherichia coli, UniProt P0A9P4)
Test: Kinetic parameters (substrate) with E. coli TrxR
Format: biochemical

By UniProt entry, the sequences of proteins in these tests, tags left out. Where a name states a change or a piece, a line headed by the entry shows the natural chain unless it says otherwise.
UniProt P0A9P4: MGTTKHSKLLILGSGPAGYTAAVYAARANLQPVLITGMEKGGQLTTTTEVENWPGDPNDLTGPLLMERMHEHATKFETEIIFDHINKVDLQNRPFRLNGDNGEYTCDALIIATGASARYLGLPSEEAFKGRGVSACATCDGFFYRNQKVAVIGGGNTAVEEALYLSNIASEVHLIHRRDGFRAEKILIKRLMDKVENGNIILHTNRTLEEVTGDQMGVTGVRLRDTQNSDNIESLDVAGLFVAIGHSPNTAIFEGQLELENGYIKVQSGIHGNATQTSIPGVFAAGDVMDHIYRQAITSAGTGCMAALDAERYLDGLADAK

O=c1c2ccccc2sn1-c1ccccc1 [EbS]
kcat/KM, E. coli TrxR: 4.67e+06 M⁻¹ s⁻¹

Source: patent US11013730B1, “Composition comprising selenazol or thiazalone derivatives and silver and method of treatment therewith” (Thioredoxin Systems AB, priority 2014, dated 2021)
